Data: article PMC4605787
These are yes or no findings as the source states them, for the method shown. Binding seen in cells or lysates may run through a third protein. These calls come from enrichment with a bait or labelling near it, and not all partners need be listed. Sequences can lack the tags named with a protein.

By UniProt entry, the sequences of proteins in these tests, tags left out.
UniProt P47197: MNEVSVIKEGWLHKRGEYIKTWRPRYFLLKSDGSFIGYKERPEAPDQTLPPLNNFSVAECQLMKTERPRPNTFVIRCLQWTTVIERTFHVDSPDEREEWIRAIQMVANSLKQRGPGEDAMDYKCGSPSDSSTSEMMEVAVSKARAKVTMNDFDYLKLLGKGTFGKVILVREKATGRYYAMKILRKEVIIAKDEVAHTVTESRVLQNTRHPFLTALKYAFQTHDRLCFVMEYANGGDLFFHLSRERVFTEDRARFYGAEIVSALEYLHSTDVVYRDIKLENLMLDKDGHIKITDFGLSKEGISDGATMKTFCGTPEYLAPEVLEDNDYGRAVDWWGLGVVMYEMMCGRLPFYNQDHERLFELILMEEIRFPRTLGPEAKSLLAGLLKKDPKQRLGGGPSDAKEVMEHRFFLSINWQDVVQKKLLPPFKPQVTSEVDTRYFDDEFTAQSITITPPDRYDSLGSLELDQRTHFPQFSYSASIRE

B1: H/ACA ribonucleoprotein complex subunit 1 (protein, UniProt Q6AYA1 1-226)
chain: MSFRGGGRGGFNRGGGGGGFNRGGGSNNHFRGGGGGGGGGGNFRGGGRGGFGRGGGRGGFNKFQDQGPPERVVLLGEFMHPCEDDIVCKCTTEENKVPYFNAPVYLENKEQIGKVDEIFGQLRDFYFSVKLSENMKASSFKKLQKFYIDPYKLLPLQRFLPRPPGEKGPPRGGGGGGGGGRGGRGGGRGGGGRGGGRGGGFRGGRGGGGGFRGGRGGGGGFRGRGH
B2: Interferon-induced guanylate-binding protein 2 (protein, UniProt Q63663 1-589)
chain: MASEIHMLQPMCLIENTEAHLVINQEALRILSAINQPVVVVAIVGLYRTGKSYLMNKLAGKRTGFSLGSTVQSHTKGIWMWCVPHPKKAGQTLVLLDTEGLEDVEKGDNQNDCWIFALAVLLSSTFVYNSMGTINQQAMDQLHYVTELTDLIKSKSSPDQSGIDDSANFVGFFPTFVWALRDFSLELEVNGKLVTPDEYLEHSLTLKKGADKKTKSFNEPRLCIRKFFPKRKCFIFDRPALRKQLCKLETLGEEELCSEFVEQVAEFTSYIFSYSAVKTLSGGIIVNGPRLKSLVQTYVGAISSGSLPCMESAVLTLAQIENSAAVQKAITHYEEQMNQKIQMPTETLQELLDLHRLIEREAIEIFLKNSFKDVDQKFQTELGNLLISKRDAFIKKNSDVSSAHCSDLIEDIFGPLEEEVKQGTFSKPGGYFLFLQMRQELEKKYNQAPGKGLEAEAVLKKYFESKEDIVETLLKTDQSLTEAAKEIEVERIKAETAEAANRELAEKQEKFELMMQQKEESYQEHVRQLTEKMKEEQKKLIEEQDNIIALKLREQEKFLREGYENESKKLLREIENMKRRQSPGKCTIL
B3: Heterogeneous nuclear ribonucleoprotein L (protein, UniProt F1LQ48 1-623)
chain: MSRRLLPRAEKRRRRLEQRQQPDEQLRRAGAMVKMAAAGGGGGGGRYYGGGNEGGRAPKRLKTENAGDQHGGGGGGGSGAAGGGGGENYDDPHKTPASPVVHIRGLIDGVVEADLVEALQEFGPISYVVVMPKKRQALVEFEDVLGACNAVNYAADNQIYIAGHPAFVNYSTSQKISRPGDSDDSRSVNSVLLFTILNPIYSITTDVLYTICNPCGPVQRIVIFRKNGVQAMVEFDSVQSAQRAKASLNGADIYSGCCTLKIEYAKPTRLNVFKNDQDTWDYTNPNLSGQGDPGSNPNKRQRQPPLLGDHPAEYGEGRGFPSVDSRGSCAPARRPPRKFSPVLPLFPSHPPGGPHGGYHSHYHDEGYGPPPPHYEGRRMGPPVGGHRRGPSRYGPQYGHPPPPPPPPDYGPHADSPVLMVYGLDQSKMNCDRVFNVFCLYGNVEKVKFMKSKPGAAMVEMADGYAVDRAITHLNNNFMFGQKMNVCVSKQPAIMPGQSYGLEDGSCSYKDFSESRNNRFSTPEQAAKNRIQHPSNVLHFFNAPLEVTEENFFEICDELGVKRPTSVKVFSGKSERSSSGLLEWDSKSDALETLGFLNHYQMKNPNGPYPYTLKLCFSTAQHAS
B4: Hypoxanthine-guanine phosphoribosyltransferase (protein, UniProt P27605 1-218)
chain: MSTLSPSVVISDDEPGYDLDLFCIPNHYAEDLEKVFIPHGLIMDRTERLARDVMKEMGGHHIVALCVLKGGYKFFADLLDYIKALNRNSDRSIPMTVDFIRLKSYCNDQSTGDIKVIGGDDLSTLTGKNVLIVEDIIDTGKTMQTLLSLVKQYSPKMVKVASLLVKRTSRSVGYRPDFVGFEIPDKFVVGYALDYNEHFRDLNHVCVISESGKAKYKA
B5: Alcohol dehydrogenase [NADP(+)] (protein, UniProt P51635 1-325)
chain: MTASSVLLHTGQKMPLIGLGTWKSEPGQVKAAIKYALSVGYRHIDCASVYGNETEIGEALKESVGAGKAVPREELFVTSKLWNTKHHPEDVEPAVRKTLADLQLEYLDLYLMHWPYAFERGDNPFPKNADGTVKYDSTHYKETWKALEALVAKGLVKALGLSNFSSRQIDDVLSVASVRPAVLQVECHPYLAQNELIAHCQARGLEVTAYSPLGSSDRAWRHPDEPVLLEEPVVLALAEKHGRSPAQILLRWQVQRKVICIPKSITPSRILQNIQVFDFTFSPEEMKQLDALNKNWRYIVPMITVDGKRVPRDAGHPLYPFNDPY
B6: Ornithine aminotransferase, mitochondrial (protein, UniProt P04182 36-439)
chain: GPPSSEYIFERESKYGAHNYHPLPVALERGKGIYMWDVEGRQYFDFLSAYGAVSQGHCHPKIIEAMKSQVDKLTLTSRAFYNNVLGEYEEYITKLFNYNKVLPMNTGVEAGETACKLARRWGYTVKGIQKYKAKIVFAVGNFWGRTLSAVSSSTDPTSYDGFGPFMPGFETIPYNDLPALERALQDPNVAAFMVEPIQGEAGVIVPDPGYLTGVRELCTRHQVLFIADEIQTGLARTGRWLAVDHENVRPDIVLLGKALSGGLYPVSAVLCDDDIMLTIKPGEHGSTYGGNPLGCRIAIAALEVLEEEHLAENADKMGAILRKELMKLPSDVVTAVRGKGLLNAIVIRETKDCDAWKVCLRLRDNGLLAKPTHGDIIRLAPPLVIKEDEIRESVEIINKTILSF
B7: Proliferation-associated protein 2G4 (protein, UniProt Q6AYD3 1-394)
chain: MSGEDEQQEQTIAEDLVVTKYKMGGDIANRVLRSLVEASSSGVSVLSLCEKGDAMIMEETGKIFKKEKEMKKGIAFPTSISVNNCVCHFSPLKSDQDYILKEGDLVKIDLGVHVDGFIANVAHTFVIGVAQGSQVTGRKADVIKAAHLCAEAALRLVKPGNQNTQVTEAWNKVAHSFNCTPIEGMLSHQLKQHVIDGEKTIIQNPTDQQKKDHEKAEFEVHEVYAVDVLVSSGEGKAKDAGQRTTIYKRDPSKQYGLKMKTSRAFFSEVERRFDAMPFTLRAFEDEKKARMGVVECAKHELLQPFNVLYEKEGEFVAQFKFTVLLMPNGPMRITSGPFEPDLYKSEMEVQDAELKALLQSSASRKTQKKKKKKASKTAENATSGETLEENGAGD
B8: Protein disulfide-isomerase A4 (protein, UniProt P38659 21-643)
chain: AASAEDAHEDASDSENPIEDDDDEEEDEEDEDDLEVKEENGVWVLNDENFDNFVADKDTVLLEFYAPWCGHCKQFAPEYEKIASTLKDNDPPIAVAKIDATSASMLASKFDVSGYPTIKILKKGQAVDYDGSRTQEEIVAKVREVSQPDWTPPPEVTLTLTKENFDDVVNNADIILVEFYAPWCGHCKKLAPEYEKAAKELSKRSPPIPLAKVDATEQTDLAKRFDVSGYPTLKIFRKGRPFDYNGPREKYGIVDYMVEQSGPPSKEILTLKQVQEFLKDGDDVVILGVFQGVGDPGYLQYQDAANTLREDYKFHHTFSTEIAKFLKVSLGKLVLMQPEKFQSKYEPRMHVMDVQGSTEASAIKDYVVKHALPLVGHRKTSNDAKRYSKRPLVVVYYSVDFSFDYRTATQFWRNKVLEVAKDFPEYTFAIADEEDYATEVKDLGLSESGEDVNAAILDESGKKFAMEPEEFDSDALQEFVMAFKKGKLKPVIKSQPVPKNNKGPVRVVVGKTFDAIVMDPKKDVLIEFYAPWCGHCKQLEPVYTSLGKKYKGQKDLVIAKMDATANDITNDRYKVEGFPTIYFAPSGDKKNPIKFEGGNRDLEHLSKFIDEHATKRSRTKEEL
B9: Phosphatidylethanolamine-binding protein 1 (protein, UniProt P31044 1-187)
chain: MAADISQWAGPLSLQEVDEPPQHALRVDYGGVTVDELGKVLTPTQVMNRPSSISWDGLDPGKLYTLVLTDPDAPSRKDPKFREWHHFLVVNMKGNDISSGTVLSEYVGSGPPKDTGLHRYVWLVYEQEQPLNCDEPILSNKSGDNRGKFKVESFRKKYHLGAPVAGTCFQAEWDDSVPKLHDQLAGK
B10: D-3-phosphoglycerate dehydrogenase (protein, UniProt O08651 1-533)
chain: MAFANLRKILISDSLDPCCRKILQDGGLQVVEKQNLSKEELIAELQDCEGLIVRSATKVTADVINAAEKLQVVGRAGTGVDNVDLEAATRKGVLVMNTPNGNSLSAAELTCGMLMCLARQIPQATASMKDGKWDRKKFMGTELNGKTLGILGLGRIGREVAARMQAFGMKTVGYDPIISPEVAASFGVQQLPLEEIWPLCDFITVHTPLLPSTTGLLNDSTFAQCKKGVRVVNCARGGIVDEGALLRALQSGQCAGAALDVFTEEPPRDRALVDHENVISCPHLGASTKEAQSRCGEEIAVQFVDMVKGKSLTGVVNAQALTSAFSPHTKPWIGLAEALGTLMHAWAGSPKGTIQVVTQGTSLKNAGTCLSPAVIVGLLREASKQADVNLVNAKLLVKEAGLNVTTSHSPGVPGEQGIGECLLTVALAGAPYQAVGLVQGTTPMLQMLNGAVFRPEVPLRRGQPLLLFRAQPSDPVMLPTMIGLLAEAGVQLLSYQTSKVSDGDTWHVMGLSSLLPSLDAWKQHVSEAFQFCF
B11: Proteasome subunit beta type-1 (protein, UniProt P18421 28-240)
chain: RFSPYAFNGGTVLAIAGEDFSIVASDTRLSEGFSIHTRDSPKCYKLTDKTVIGCSGFHGDCLTLTKIIEARLKMYKHSNNKAMTTGAIAAMLSTILYSRRFFPYYVYNIIEGLDEEGKGAVYSFDPVGSYQRDSFKAGGSASAMLQPLLDNQVGFKNMQNVEHVPLTLDRAMRLVKDVFISAAERDVYTGDALRICIVTKEGIREETVPLRKD
B12: Prostaglandin E synthase 3 (protein, UniProt P83868 1-160)
chain: MQPASAKWYDRRDYVFIEFCVEDSKDVNVNFEKSKLTFSCLGGSDNFKHLNEIDLFHCIDPNDSKHKRTDRSILCCLRKGESGQSWPRLTKERAKLNWLSVDFNNWKDWEDDSDEDMSNFDRFSEMMDHMGGDEDVDLPEVDGADDDSQDSDDEKMPDLE
B13: Putative RNA-binding protein 3 (protein, UniProt Q925G0 1-155)
chain: MSSEEGKLFVGGLNFNTDEQALEDHFSSFGPISEVVVVKDRETQRSRGFGFITFTNPEHASDVMRAMNGESLDGRQIRVDHAGKSARGTRGGAFGAHGRGRSYSRGGGDQGYGSGRYDSRPGGYGYGYGRSRDYSGSQGGYDRYSGGNYRDNYDN
B14: Aminopeptidase B (protein, UniProt O09175 1-650)
chain: MESSGPSSCHSAARRPLHSAQAVDVASASSFRAFEILHLHLDLRAEFGPPGPGPGSRGLNGKATLELRCLLPEGASELRLDSHSCLEVMAATLLRGQPGDQQQLTEPVPFHTQPFSHYGQALCVVFPKPCCAAERFRLELTYRVGEGPGVCWLAPEQTAGKKKPFVYTQGQAVLNRAFFPCFDTPAVKCTYSALVEVPDGFTAVMSASTWERRGPNKFFFQMSQPIPSYLIALAIGDLASAEVGPRSRVWAEPCLIEAAKEEYNGVIEEFLATGEKLFGPYVWGRYDLLFMPPSFPFGGMENPCLTFVTPCLLAGDRSLADVIIHEISHSWFGNLVTNANWGEFWLNEGFTMYAQRRISTILFGAAYTCLEAATGRALLRQHMDVSGEENPLNKLRVKIEPGVDPDDTYNETPYEKGYCFVSYLAHLVGDQEQFDKFLKAYVDEFKFQSILAEDFLEFYLEYFPELKKKGVDSIPGFEFNRWLNTPGWPPYLPDLSPGDSLMKPAEELAELWAASEPDMQAIEAVAISTWKTYQLVYFLDKILQKSPLPPGNVKKLGETYPKISNAQNAELRLRWGQIILKNDHQEEFWKVKDFLQSQGKQKYTLPLYHAMMGGSEMARTLAKETFSATASQLHSNVVNYVQQILAPKGS

Target: Akt2 (rat (endogenous in L6 myoblasts)) (UniProt P47197)
Test: affinity purification with mass spectrometry; endogenous Akt2 immunoprecipitated (2 ug rabbit polyclonal anti-Akt2, protein A beads, overnight, 4°C) from 1 mg L6 myoblast lysate precleared with NIgG; cells serum-starved, with or without 100 nM insulin for 15 min; lysis buffer 50 mM HEPES pH 7.6, 150 mM NaCl, 1% Triton; 1D-SDS-PAGE, in-gel trypsin digestion, HPLC-ESI-MS/MS, label-free quantification; hits absent from all NIgG controls

Binder | binding
B1 | binds
B2 | binds
B3 | binds
B4 | binds
B5 | binds
B6 | binds
B7 | binds
B8 | binds
B9 | binds
B10 | binds
B11 | binds
B12 | binds
B13 | binds
B14 | binds
